The list shows a part of the results.

The target in the assay is T1, OsSMF1 (Oryza sativa, UniProt Q6ZLB0 1-436).
T1 sequence: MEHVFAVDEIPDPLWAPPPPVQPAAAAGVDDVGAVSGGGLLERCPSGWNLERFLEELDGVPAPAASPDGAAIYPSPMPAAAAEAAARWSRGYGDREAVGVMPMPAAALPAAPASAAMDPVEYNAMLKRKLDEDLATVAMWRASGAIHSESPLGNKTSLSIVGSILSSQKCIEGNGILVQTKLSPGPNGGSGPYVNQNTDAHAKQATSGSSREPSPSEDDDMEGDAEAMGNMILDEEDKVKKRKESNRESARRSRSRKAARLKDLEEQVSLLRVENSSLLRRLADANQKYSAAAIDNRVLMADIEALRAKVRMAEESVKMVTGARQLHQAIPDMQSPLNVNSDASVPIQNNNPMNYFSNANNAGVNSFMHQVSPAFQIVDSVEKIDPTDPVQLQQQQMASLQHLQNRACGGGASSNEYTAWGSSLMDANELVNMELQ
The assay is described as follows: protein-binding microarray (RPBM); PBS, 2% BSA, 51.3 ng/ul salmon testes DNA, 50 uM zinc acetate, 200 nM TF, 25 C, 1 h; high values mean tight binding. The settings on record: protein: recombinant; tags: N-terminal polyhistidine and DsRed monomer fusion (pET32a); chain copies: 2; label: CyDye5-dUTP incorporated in the synthesized complementary strand; 3' TTTTT single-stranded linker to array surface; dsDNA, one strand shown. The method, boiled down:
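The binding signal is fluorescence intensity per array feature (arbitrary units). Readings came from an Axon 4000B scanner after a washed, 2% BSA-blocked, double-stranded custom Agilent array had been incubated for 1 h at 25 °C with 200 nM protein and 50 µM zinc acetate. The protein was a Ni–NTA-purified transcription factor fused N-terminally to polyhistidine and DsRed, expressed in E. coli BL21-CodonPlus.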
In the case of “GTTGTTGTTGCAGTCCAGTCAGAGAGCAGAGGGCACTGCACGGAGTCACCTAGTGCAG”, the binding signal is 3360 fluorescence intensity (a.u.). For “AGGTTGACACGACGACGACGCGAGTCACACGACGCGACAGCGGAGTCACCTAGTGCAG” the value was 4440 fluorescence intensity (a.u.); for “GCTCTGAATATTCCTATGATTACAAATAGCAGGGTATCAACGGAGTCACCTAGTGCAG”, 3390 fluorescence intensity (a.u.). For “AGCGACAGGGCGACCTCGGCACCGCACGCCATGGATTGACCGGAGTCACCTAGTGCAG” the value was 3150 fluorescence intensity (a.u.); for “AGTTTGAAAACCCACCGCCACGTCGCCGCCGCCGCCGCCGCGGAGTCACCTAGTGCAG”, 8870 fluorescence intensity (a.u.); for “TTCACACGCACCGTCTCACCTGACGTGGCGAGACAACACTCGGAGTCACCTAGTGCAG”, 19100 fluorescence intensity (a.u.). Consider “TGGGCGGCACTCGCTGATGTCCACATCAGTGACCAATAAGCGGAGTCACCTAGTGCAG”, for which the binding signal was 4110 fluorescence intensity (a.u.). The value for “GATGAGTAGACCAAAGCGACCGCGCTCATGACATCTACAGCGGAGTCACCTAGTGCAG” was 3540 fluorescence intensity (a.u.); that for “GTGAGCGTGAGCTTTTAGACCTTACCATTCTATGAGATATCGGAGTCACCTAGTGCAG” was 20700 fluorescence intensity (a.u.); that for “GAGGAGGCGCTGGATGACGCGATCGCGTTCGCGAGGCACCCGGAGTCACCTAGTGCAG” was 5000 fluorescence intensity (a.u.). As for “TTAAATTCTAGTACCCATTTCTCGGGTGAGGATCCTCTACCGGAGTCACCTAGTGCAG”, the binding signal is 32800 fluorescence intensity (a.u.). In the case of “GAGCTCCACCTCCTCGCGTGCCCACGCCATCCATGGCTTCCGGAGTCACCTAGTGCAG”, the binding signal was 4500 fluorescence intensity (a.u.).

For the sequence “GAATCCATCGACACGTTTCTTTCGTCAGAACAGTGTCCGTCGGAGTCACCTAGTGCAG”, the binding signal was 3420 fluorescence intensity (a.u.). For the sequence “GTGGGACGTCTACCCAGCGCTGTGGTTGACTGGCGCGTGGCGGAGTCACCTAGTGCAG”, the binding signal was 3230 fluorescence intensity (a.u.). For “GGTGTAAAGTTAGTTTTGCTGTGTCACATCGGGTATTAAACGGAGTCACCTAGTGCAG” the value was 3460 fluorescence intensity (a.u.); for “GTGTCCGAGGGATGTGGTCCGCGCGGCCCTTGCCAACAAGCGGAGTCACCTAGTGCAG”, 3160 fluorescence intensity (a.u.). Consider “CCCTCCGTCTCAAAATAATTTAACCAAGAACATGATCTGACGGAGTCACCTAGTGCAG”, for which the binding signal was 18700 fluorescence intensity (a.u.). The value for “TACACCTGACTGTCGACCCTCACCATCTAGACACTTCCATCGGAGTCACCTAGTGCAG” was 3590 fluorescence intensity (a.u.); that for “CTGCGCTTCCGCCGACCACATCAGCTGCAGCACCAGCACCCGGAGTCACCTAGTGCAG” was 4670 fluorescence intensity (a.u.). For “GCCGCTCCGCTCGCCGGCGAGCTGCCGGGGAACTCCGGCGCGGAGTCACCTAGTGCAG” the value was 3390 fluorescence intensity (a.u.); for “CAAGAGATAAGGAGCAATCGATCCAGCGTGGCGGCATGCACGGAGTCACCTAGTGCAG”, 3470 fluorescence intensity (a.u.). As for “ACCAAACGACCTGGCCCTCCCTGCCCTCCTCTTCTTCTCCCGGAGTCACCTAGTGCAG”, the binding signal was 3350 fluorescence intensity (a.u.).

For “TGGGAGTTCGTTTGTGATGCCAGCTCTGCCATGCATATTTCGGAGTCACCTAGTGCAG”, the binding signal is 3920 fluorescence intensity (a.u.). With “AAGTAAGATGCCACACACCATAGTCTGCTTCACTGTCAACCGGAGTCACCTAGTGCAG”, the binding signal is 3200 fluorescence intensity (a.u.).

Take “GTTTCCGTCGTTGTTTGCTCCGCCACGAGGGCGCGCTACACGGAGTCACCTAGTGCAG”: the binding signal was 3350 fluorescence intensity (a.u.). For “TAGTCCAATCCATCGTGTTTCCACGTGGCGACCCAACCCCCGGAGTCACCTAGTGCAG” the value was 40000 fluorescence intensity (a.u.). The value for “TGGAAATTACCATTTGCCTACTCCCATCGTGTCACCAGAACGGAGTCACCTAGTGCAG” was 4220 fluorescence intensity (a.u.); that for “CTTAAATTACAAAGAACGACACAAAGTGTCCTAGAATGAACGGAGTCACCTAGTGCAG” was 4340 fluorescence intensity (a.u.). The value for “AGCCCGGTGACGGTGCGGGAGTGCAACACCAACTGGTTCGCGGAGTCACCTAGTGCAG” was 4220 fluorescence intensity (a.u.); that for “AGGCAACAGACTCACCGTAGTAGATGGTGACGTTAACTCTCGGAGTCACCTAGTGCAG” was 3890 fluorescence intensity (a.u.); that for “AAACTGCCAAAACCGCCACGTCCGTAGCACGCTAAAACCTCGGAGTCACCTAGTGCAG” was 8860 fluorescence intensity (a.u.). “CATGAATTTCTTTGTTCATCCAAGGGTAAAATGGTCATTTCGGAGTCACCTAGTGCAG”: the binding signal is 3920 fluorescence intensity (a.u.). For “CGTGTCGTCCCAATCCGCCACGTCCTCGCCCAAAGCTCCACGGAGTCACCTAGTGCAG” the value was 9620 fluorescence intensity (a.u.); for “CGCACGCAACGCCACGTCAGCAATAATCCGCGGTGTCGCTCGGAGTCACCTAGTGCAG”, 17900 fluorescence intensity (a.u.). The value for “GCGCTAAATCCACTTGTCGACGTGGATGCTCTATGTTTCTCGGAGTCACCTAGTGCAG” was 8620 fluorescence intensity (a.u.). For “CAATGAAAGAGAGCGATGGCGCGTGTTTATATTTCGCTATCGGAGTCACCTAGTGCAG” the value was 3850 fluorescence intensity (a.u.). For the sequence “CCTCTACATTTCGTTTTAGATCCGCGCCCATGTGGCTATACGGAGTCACCTAGTGCAG”, the binding signal was 3610 fluorescence intensity (a.u.). Regarding “GGATGGAGTTAGTACGTCATAGATTCGATACTCCATACGTCGGAGTCACCTAGTGCAG”, the binding signal was 3370 fluorescence intensity (a.u.). For “ATATGTGCTGGCCGCTGAGGTATACAGTATATGGGCCAACCGGAGTCACCTAGTGCAG”, the binding signal is 3580 fluorescence intensity (a.u.). For “ATAGCCCGTCCTCTTCATGGACCACGGTGTACAGCTTGCTCGGAGTCACCTAGTGCAG” the value was 3980 fluorescence intensity (a.u.).

Take “GCCCTCGCGCCACGTGGAGGTCACCTCCCATTTCCTCGTCCGGAGTCACCTAGTGCAG”: the binding signal is 13200 fluorescence intensity (a.u.). For “TTTTAATAGCCGGCCGTCGCCGTGGCGACCATCGTCATCGCGGAGTCACCTAGTGCAG” the value was 4040 fluorescence intensity (a.u.).
